Source: PMC5691892
Substitutions are numbered along the chain they refer to. Names and notes keep the numbering of the source. No constants are given. Whether binding was seen depends on the method and setting. In cells and extracts the contact can be indirect. Some results given as binding are weak or reduced against the parent protein; the word gives no strength. Each block holds one binder with its values, some of them ahead of it.

Amino acid sequences for entries named in this document (tags omitted).
UniProt Q13191: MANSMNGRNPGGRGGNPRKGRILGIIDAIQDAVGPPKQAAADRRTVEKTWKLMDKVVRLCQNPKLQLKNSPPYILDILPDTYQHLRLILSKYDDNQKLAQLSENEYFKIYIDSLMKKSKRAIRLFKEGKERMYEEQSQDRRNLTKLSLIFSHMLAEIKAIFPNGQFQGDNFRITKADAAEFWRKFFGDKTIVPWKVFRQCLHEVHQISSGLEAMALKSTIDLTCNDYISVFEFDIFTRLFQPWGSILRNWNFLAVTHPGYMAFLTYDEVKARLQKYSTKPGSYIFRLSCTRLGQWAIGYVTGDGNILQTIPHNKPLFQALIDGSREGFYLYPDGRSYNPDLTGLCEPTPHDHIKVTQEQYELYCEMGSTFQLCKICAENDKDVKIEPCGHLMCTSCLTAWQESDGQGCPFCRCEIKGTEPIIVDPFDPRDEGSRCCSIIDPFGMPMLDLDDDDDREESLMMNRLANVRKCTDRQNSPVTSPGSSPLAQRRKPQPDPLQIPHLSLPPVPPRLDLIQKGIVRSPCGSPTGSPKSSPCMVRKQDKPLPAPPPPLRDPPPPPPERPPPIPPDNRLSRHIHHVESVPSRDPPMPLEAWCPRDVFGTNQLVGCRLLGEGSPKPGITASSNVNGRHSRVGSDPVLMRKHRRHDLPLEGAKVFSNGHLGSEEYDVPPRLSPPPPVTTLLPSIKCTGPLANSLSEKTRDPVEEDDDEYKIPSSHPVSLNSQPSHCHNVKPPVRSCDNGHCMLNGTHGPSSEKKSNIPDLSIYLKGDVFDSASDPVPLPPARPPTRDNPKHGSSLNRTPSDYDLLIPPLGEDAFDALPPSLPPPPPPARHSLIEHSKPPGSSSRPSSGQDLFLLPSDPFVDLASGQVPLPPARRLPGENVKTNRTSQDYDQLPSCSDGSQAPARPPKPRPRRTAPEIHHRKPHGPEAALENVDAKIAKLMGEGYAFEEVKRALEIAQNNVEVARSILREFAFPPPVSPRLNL

Target: Human Cbl-b (ectopically expressed) (human) (UniProt Q13191)
Assay: co-IP; ectopically expressed proteins in Jurkat cells (WT, CBLB knockdown clone sh1, or VAV1-/- cells expressing Vav1 proteins), 36 hr after electroporation; lysis in 10 mM Tris-HCl pH 8.0, 150 mM NaCl, 1% Triton X-100; 2 hr at 4°C with antibodies to Cbl-b or ICN1, Gammabind G-Sepharose; immunoblot

binding: binds
B1: Mouse Vav1^WT (ectopically expressed) (protein, UniProt P27870 1-845)
chain: MELWRQCTHWLIQCRVLPPSHRVTWEGAQVCELAQALRDGVLLCQLLNNLLPQAINLREVNLRPQMSQFLCLKNIRTFLSTCCEKFGLKRSELFEAFDLFDVQDFGKVIYTLSALSWTPIAQNKGIMPFPTEDSALNDEDIYSGLSDQIDDTAEEDEDLYDCVENEEAEGDEIYEDLMRLESVPTPPKMTEYDKRCCCLREIQQTEEKYTDTLGSIQQHFMKPLQRFLKPQDMETIFVNIEELFSVHTHFLKELKDALAGPGATTLYQVFIKYKERFLVYGRYCSQVESASKHLDQVATAREDVQMKLEECSQRANNGRFTLRDLLMVPMQRVLKYHLLLQELVKHTQDATEKENLRLALDAMRDLAQCVNEVKRDNETLRQITNFQLSIENLDQSLANYGRPKIDGELKITSVERRSKTDRYAFLLDKALLICKRRGDSYDLKASVNLHSFQVRDDSSGERDNKKWSHMFLLIEDQGAQGYELFFKTRELKKKWMEQFEMAISNIYPENATANGHDFQMFSFEETTSCKACQMLLRGTFYQGYRCYRCRAPAHKECLGRVPPCGRHGQDFAGTMKKDKLHRRAQDKKRNELGLPKMEVFQEYYGIPPPPGAFGPFLRLNPGDIVELTKAEAEHNWWEGRNTATNEVGWFPCNRVHPYVHGPPQDLSVHLWYAGPMERAGAEGILTNRSDGTYLVRQRVKDTAEFAISIKYNVEVKHIKIMTSEGLYRITEKKAFRGLLELVEFYQQNSLKDCFKSLDTTLQFPYKEPERRAISKPPAGSTKYFGTAKARYDFCARDRSELSLKEGDIIKILNKKGQQGWWRGEIYGRIGWFPSNYVEEDYSEYC

binding: binds
B2: Mouse Vav1^G691V (protein, UniProt P27870 1-845)
chain: B1 chain with G691V
